Assay results: the supplement of paper PMC3334620
Whole data set: some 33,000 sequences, median “E-score (-0.5 to 0.5)” near -8e-05, cut for the highest 2% near 0.23. The list shows a part of the results.

target: T1, Nrg2 (UniProt P38082); assay: PBM E-score (8-mer binding enrichment) (E-score (-0.5 to 0.5)); higher = stronger / more preferred TF binding; settings: protein concentration: 100 nM; construct: GST-full length
T1 sequence: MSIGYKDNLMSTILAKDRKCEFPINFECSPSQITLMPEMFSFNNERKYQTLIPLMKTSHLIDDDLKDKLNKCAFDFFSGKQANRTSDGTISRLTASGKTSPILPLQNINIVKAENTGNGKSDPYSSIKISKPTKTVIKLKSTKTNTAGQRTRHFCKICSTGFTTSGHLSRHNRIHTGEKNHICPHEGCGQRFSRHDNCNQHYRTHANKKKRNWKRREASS
Procedure, shortened: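 Universal all-10-mer Agilent arrays, double-stranded by primer extension on fresh or once-stripped slides, were probed with about 100-200 nM GST-tagged yeast transcription factors made by PURExpress. Fluorescent anti-GST detected bound protein, and masliner normalised the scans. E-scores from the Universal PBM Analysis Suite were given to each ungapped eight-base word pooled with its reverse complement.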

Point of comparison: GGCGCAAC, “PBM E-score” value 0.118. Against it:
- CAAAGGTC — lower, -0.00259
- AAAATTCA — higher, 0.199
- ACGGTTGA — lower, -0.049
- AGTACCCG — lower, 0.00561
- CCAGTCGA — lower, 0.0204
- AATCGGAT — higher, 0.121
- AGTCTTCG — lower, -0.228
- GGGAACGA — lower, -0.135
- CAGTGGGA — lower, -0.0307
- CATCAAAC — lower, 0.047
- GGGTTGGA — lower, -0.0866
- CGGAGAAG — lower, -0.161
- CTTACGGA — lower, -0.243
- CCCACAAA — higher, 0.247
- AAATAGTG — lower, 0.111
- AACTCTCA — lower, -0.0436
- CTCCTGGC — lower, -0.0132
- AGTAAGAT — lower, 0.115
- GACTGGAA — lower, -0.0853
- CGACAGTA — lower, 0.0257
- AGGCGCCC — lower, -0.0716
- ATATTGCC — lower, 0.052
- AACACACC — lower, 0.0532
- AGTACATC — lower, 0.0621
- ACAAAGTA — lower, 0.0772
- ACGCCCAA — lower, 0.0467
- CGGCTGGA — lower, 0.0573
- AGTAATAC — lower, -0.0266
- AGTGAATA — lower, 0.0436
- ACCTCTAG — lower, -0.0929
- AAAGTAAC — lower, 0.0532
- CACTAGTC — lower, -0.122
- TCAGAACA — lower, 0.0113
- AAGGAAGG — lower, -0.0583
- GCTGTCAA — lower, -0.023
- GTGCACTA — lower, 0.117
- CGGTAAGA — lower, -0.0669
- AAGTGAGT — lower, -0.0427
- ACCAGTGC — lower, -0.347
- CCCACGGG — lower, -0.15
- AACTGTGC — lower, -0.0641
- CAAGCTCC — lower, -0.235
- CATTGCGC — lower, -0.0495
- AATTCCCT — lower, -0.00789
- GGCACCAC — lower, -0.0855
- TAAGTATA — higher, 0.205
- GCGAGTAA — higher, 0.198
- ATCACCGA — lower, -0.124
- TCCCCAGA — lower, -0.0388
- ATAGACCA — lower, 0.0312
- CGGGTTAC — lower, 0.0201
- ACTTTGCT — lower, -0.101
- GCGGATTA — lower, 0.1
- TAAGGTAA — lower, 0.0784
- GCTGCAGC — higher, 0.121
- ATCATTCA — lower, 0.0768
- CGATTAGC — lower, 0.007
- AACGGATC — higher, 0.199
- CGCTAGAG — lower, -0.0528
- CTTCAGGC — lower, -0.151
- CTAGAGAG — lower, -0.205
- CTACCGTC — lower, -0.12
- GTGTAAGA — lower, -0.0727
- GGAACGAA — lower, 0.088
- ACCCCTTA — higher, 0.178
- CAAGGGTG — lower, 0.0522
- GAGGTGTA — lower, -0.141
- GCTTCGAA — lower, 0.0932
- AGACAACT — higher, 0.168
- CTGCGCGA — lower, -0.0667
- ATATGTGG — higher, 0.131
- GCCTTTAA — lower, 0.0472
- AATTCGGC — lower, 0.0379
- CGTCATAC — lower, 0.105
- GAGAGAGA — lower, 0.00804
- AACGGTAT — lower, -0.00255
- CGCACAGC — lower, -0.0765
- CGCGGATC — lower, 0.037
- AATGGGTA — lower, 0.0928
- GCCCCTCC — lower, -0.0501
- AGGACTTA — lower, -0.219
- CCCAGTAC — lower, -0.0672
- CCTGCATA — lower, -0.0556
- AAAGCATC — lower, -0.00854
- TACTCGAA — lower, -0.0855
- AAGTAAGG — higher, 0.159
- AGTTCCCC — lower, -0.0856
- AATCGACC — higher, 0.126
- ATGGGGAA — higher, 0.222
- GTGATCAC — lower, -0.0973
- AGTGAAGC — lower, 0.054
- AAGGGGGC — lower, -0.14
- AAATCTGG — lower, -0.00921
- AGCTGAAC — lower, -0.0688
- GGTAAACA — lower, 0.0404
- ACTGTGGG — lower, -0.0564
- ATATAATG — lower, 0.0549
- CCGGGCAA — lower, -0.145
- CGTAGATA — lower, -0.0208
- AGATTGCA — lower, 0.109
- GCGACACA — lower, -0.0338
- ATCGTAGG — lower, -0.0695
- CACCAGTC — lower, -0.245
- CCGCGAGC — lower, -0.0331
- GCGTTACC — lower, 0.0142
- AATGTGCC — lower, -0.0383
- GGGAGACA — lower, 0.0155
- GTGTCGCA — lower, -0.0996
- TCCTTTAA — lower, -0.0214
- GAGTAGCC — lower, -0.168
- CCCGCGTC — lower, 0.117
- CGAGTGAC — lower, -0.0664
- ATGTTGCA — higher, 0.137
- AAAGGTCA — lower, 0.00103
- GTGCCACA — lower, -0.13
- AGCGACGA — lower, 0.0107
- TACCATAA — higher, 0.158
- GGGACGAC — lower, 0.0254
- TACAATAA — lower, 0.0523
- ATTGTCAC — lower, 0.0203
- GCCCAATA — lower, 0.0704
- AGAGACCG — lower, -0.198
- CCTAACCA — lower, 0.0503
- TCACCAGA — lower, -0.245
- GGGTAGCA — lower, -0.0316
- GGTCGTTA — lower, -0.00795
- CCCCGCTA — lower, 0.0985
- CACTGCCC — lower, -0.0684
- AGGCGGCG — lower, -0.0115
- CGGCCGTC — lower, -0.0437
- CATCCGAA — higher, 0.168
- AAAGCGGA — lower, -0.00417
- GCCGTATA — higher, 0.141
- CATGGAGC — lower, 0.0479
- GCACCTCC — lower, -0.211
- CTTGGAGC — lower, -0.0347
- CGTTAAAA — lower, -0.15
- CGGGTAAG — lower, -0.13
- ACTATCCC — lower, -0.0916
- GGAACACA — lower, 0.097
- ACCCCCGG — lower, -0.314
- AAGAGCGC — lower, 0.0881
- AGATGCGC — lower, 0.0467
- GATTGCAA — higher, 0.222
- ACAGTAGC — lower, -0.0757
- AGAGGTCC — lower, 0.107
- CTGAGAGC — lower, -0.121
- ACTATAAC — lower, -0.0177
- CGAACTAC — higher, 0.136
- ACGTAGAC — lower, -0.244
- GCCGACGA — lower, 0.0149
- CGATTCGC — lower, 0.0756
- CCAAGAAG — lower, -0.101
- CCGCATAA — higher, 0.195
- CTTTCGTC — lower, 0.0112
- AAATCTTA — lower, -0.00495
- ACTATTCG — higher, 0.193
- CTGACATA — lower, -0.114
- CGGCACTA — lower, 0.0799
- ACCGAGCC — lower, -0.186
- CCAATCGG — lower, -0.0318
- TACTAGGA — lower, -0.0465
- AGGACACT — lower, -0.213
- GGCGCACA — lower, 0.0256
- GACGAGAA — lower, 0.103
- AGAAAAGC — lower, 0.0021
- TAATATCA — lower, 0.0975
- CGTAAAGC — lower, -0.299
- ATCTTACA — lower, 0.0207
- CTCATCCA — lower, -0.0151
- TTGGGAAA — higher, 0.201
- CCCGGTAG — lower, -0.117
- CCCGCTCA — lower, -0.0101
- ATGGCCGG — lower, -0.116
- AGAAGGAG — lower, -0.236
- AACGCCAA — lower, 0.0978
- GAGTGATA — lower, 0.0725
- GACTGGCA — lower, -0.148
- CAATTGGG — lower, -0.0646
- AGCAATCG — lower, 0.0745
- CTGGGCGC — lower, -0.0979
- AGGATTGA — lower, 0.0965
- AGAACCAA — lower, -0.00112
- ACCCAATC — lower, 0.11
- CATTGTTA — lower, -0.0333
- CTCTCTGA — lower, -0.0253
- CTAACCGA — lower, -0.0854
- CATTATGG — lower, -0.117
- CGCATGGA — lower, 0.00237
- CCTTCGCG — lower, 0.111
- ATCTTGTC — higher, 0.121
- CATTCCAG — lower, -0.112
- GGAACCCA — lower, 0.0556
- AGTGTGGC — lower, -0.00753
- ATGTGGCC — lower, 0.11
- GATCGAGA — lower, 0.0356
- CAAAACCG — lower, 0.0961
- AAGCGAGG — lower, 0.00432
- CGGAATGA — lower, 0.0468
- AGACAGAG — lower, 0.0386
- ATGCAGCC — lower, -0.041
- CGACACAC — lower, -0.00881
- ATTGGTTC — lower, 0.0808
- ATTGCGCA — higher, 0.143
- ATACGGTC — lower, -0.163
- GGACTCGA — lower, -0.304
- TACCACGA — lower, -0.0263
- CGAAGCTC — lower, -0.169
- ACACCACC — lower, -0.279
- GGCTTCTA — lower, -0.075
- ATTCTGTG — higher, 0.185
- GCCATTCC — lower, -0.0927
- TAACATAA — higher, 0.147
- GACCGCTA — lower, -0.158
- GAATGCTA — lower, -0.066
- GGTATAAA — lower, 0.0672
- CCTTCATC — lower, -0.107
- AGGGAAAT — lower, 0.107
